{
  "source": "paper PMC3599385",
  "target": "MBP:SUB (full length STRUBBELIG fused to maltose-binding protein) (Arabidopsis thaliana)",
  "test": "pull-down; MBP-tagged proteins held on amylose resin, incubated with equal amounts of GST:AN lysate for 4 hours at 4°C; western blot with anti-AN antibody; only the target purified",
  "note": "These are yes or no findings as the source states them, for the method shown. In cells and extracts the contact can be indirect. Binding calls can cover weak binding; strength is not graded here. Tags and fused reporters may be left off the sequences shown.",
  "data": [
    {"binder": "GST:AN (fusion of glutathione-S-transferase to ANGUSTIFOLIA) (protein, UniProt O23702 1-636) MSKIRSSATMPHRDQPSPASPHVVTLNCIEDCALEQDSLAGVAGVEYVPLSRIADGKIESATAVLLHSLAYLPRAAQRRLRPHQLILCLGSADRAVDSTLAADLGLRLVHVDTSRAEEIADTVMALILGLLRRTHLLSRHALSASGWLGSLQPLCRGMRRCRGMVLGIVGRSVSARYLASRSLAFKMSVLYFDVPEGDEERIRPSRFPRAARRMDTLNDLLAASDVISLHCALTNDTVQILNAECLQHIKPGAFLVNTGSCQLLDDCAVKQLLIDGTIAGCALDGAEGPQWMEAWVKEMPNVLILPRSADYSEEVWMEIREKAISILHSFFLDGVIPSNTVSDEEVEESEASEEEEQSPSKHEKLAIVESTSRQQGESTLTSTEIVRREASELKESLSPGQQHVSQNTAVKPEGRRSRSGKKAKKRHSQQKYMQKTDGSSGLNEESTSRRDDIAMSDTEEVLSSSSRCASPEDSRSRKTPLEVMQESSPNQLVMSSKKFIGKSSELLKDGYVVALYAKDLSGLHVSRQRTKNGGWFLDTLSNVSKRDPAAQFIIAYRNKDTVGLRSFAAGGKLLQINRRMEFVFASHSFDVWESWSLEGSLDECRLVNCRNSSAVLDVRVEILAMVGDDGITRWID", "values": [
      {"measurement": "binding", "result": "binds"}
    ]}
  ]
}
